PubChem BioAssay AID1259308 – NCATS | 2017

- Purpose: 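Knock-downs that increase output of a recombinant reporter protein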 (primary screen)
- Cell system: human HEK293 embryonic kidney cells stably expressing firefly luciferase (HEK-CMV-Luc2-Hygro)
- Reagent: single siRNA against human genes, 0.8 pmol siRNA per well
- Duration: 72 h
- Detection: 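Luciferase light (ONE-Glo) measured on one replicate plate set and viability (CellTiter-Glo) on the other, scaled to a negative control siRNA, with robust z-scores and luciferase per cell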
- Direction: total luciferase, z-score and total luciferase, % of control: higher = more reporter protein produced; luciferase per cell, z-score: higher = more reporter output per viable cell; viable cells, % of control: higher = more viable cells
- Active means: 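Active when the median/MAD z-score for overall luciferase is greater than 3; a gene was taken forward for validation with new siRNAs if at least two of its three siRNAs passed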
- Calls: active = raised luciferase; inactive = no rise
Shown is one part, drawn at random, of about 59,000 deposited reagents. In the full data, about 1,510 (2.6%) got an active call. 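Calls use total luciferase alone and ignore viability, so some active siRNAs may act by altering cell number.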 No sequences are given here.

no.	target gene	PubChem SID	total luciferase, z-score	total luciferase, % of control	luciferase per cell, z-score	viable cells, % of control	Call
1	BLID	SID160767608	1.87	119	1.76	83.7	inactive
2	BLID	SID160767609	0.803	97.9	1.39	75.8	inactive
3	BLID	SID160767611	-0.795	66.1	0.368	67	inactive
4	PURB	SID160715449	0.971	101	0.218	107	inactive
5	PURB	SID160715450	1.25	107	1	91.5	inactive
6	PURB	SID160715451	1.26	107	1.49	80.7	inactive
7	OGG1	SID160723967	-0.249	76.9	-0.281	92.6	inactive
8	OGG1	SID160731315	2.92	140	2.38	83.7	inactive
9	OGG1	SID160778366	1.09	104	0.719	95.8	inactive
10	PHF6	SID160752087	-1.13	59.5	-1.69	104	inactive
11	PHF6	SID160752088	1.17	105	1.16	86.6	inactive
12	PHF6	SID160752089	-0.524	71.5	-0.571	92.8	inactive
13	LCE2B	SID160732862	-1.66	48.8	-2.36	101	inactive
14	LCE2B	SID160737815	1.12	104	0.914	91.5	inactive
15	LCE2B	SID160737816	-0.153	78.8	-0.35	96.6	inactive
16	MPND	SID160753030	-0.957	62.9	-1.62	108	inactive
17	MPND	SID160753031	0.792	97.6	1.01	83.5	inactive
18	MPND	SID160753032	-0.657	68.8	-0.719	92.9	inactive
19	SLC25A6	SID160717688	-0.929	63.4	-0.716	85.6	inactive
20	SLC25A6	SID160717697	-1.07	60.6	-1.74	107	inactive
21	SLC25A6	SID160717708	1.59	113	1.49	85.8	inactive
22	FBL	SID160761855	1.4	110	2.47	63.9	inactive
23	FBL	SID160761866	-1.44	53.2	-1.9	97.9	inactive
24	FBL	SID160761877	-0.867	64.6	0.146	69.5	inactive
25	FBLN1	SID160763928	2.7	136	1.43	104	inactive
26	FBLN1	SID160763939	-0.174	78.4	-0.284	94.4	inactive
27	FBLN1	SID160763950	2.05	123	2.44	72	inactive
28	MT1B	SID160777499	0.0276	82.4	0.224	86.9	inactive
29	MT1B	SID160777500	0.59	93.6	0.244	98.1	inactive
30	MT1B	SID160777501	1.89	120	1.11	99.6	inactive
31	SIGLEC15	SID160732968	-1.18	58.4	-1.36	93.5	inactive
32	SIGLEC15	SID160763228	-0.772	66.5	-0.905	94.4	inactive
33	SIGLEC15	SID160763229	1.31	108	1.36	84.4	inactive
34	KATNBL1	SID160749393	0.755	96.9	0.898	85.5	inactive
35	KATNBL1	SID160749394	-1.58	50.5	0.539	49	inactive
36	KATNBL1	SID160749396	-0.154	78.8	-0.322	95.9	inactive
37	RAB15	SID160765491	3.11	144	2.56	81.8	active
38	RAB15	SID160765492	0.388	89.6	0.358	91.1	inactive
39	RAB15	SID160765493	-0.47	72.5	-0.811	100	inactive

Part of the list above, reduced to “luciferase per cell, z-score”.
KATNBL1 [SID160749393]: 0.898
KATNBL1 [SID160749394]: 0.539
KATNBL1 [SID160749396]: -0.322
RAB15 [SID160765491]: 2.56
